# Data reported in the supplement of paper PMC8728848.
# This is one part of the list.
# B1: XTP3-B-MRH1 (Homo sapiens), Q96DZ1 (protein)
# chain: LLEPLFKQSSCSYRIESYWTYEVCHGKHIRQYHEEKETGQKINIHEYYLGNMLAKNLLFEKEREAEEKEKSNEIPTKNIEGQMTPYYPVGMGNGTPCSLKQNRPRSSTVMYICHPESKHEILSVAEVTTCEYEVVILTPLLCSHPKYRFRA
# Experiments:
# Test in all cases: glycan array binding signal (z-score within array); higher = stronger binding
# Details in all cases: glycan notation: IUPAC condensed, linker removed
# [1] = target: Neu5Ac(a2-6)Gal(b1-4)GlcNAc(b1-3)Gal(b1-4)GlcNAc(b1-3)Gal(b1-4)GlcNAc(b1-2)Man(a1-3)[Neu5Ac(a2-6)Gal(b1-4)GlcNAc(b1-3)Gal(b1-4)GlcNAc(b1-3)Gal(b1-4)GlcNAc(b1-2)Man(a1-6)]GalNAc
# Procedure, shortened: (§1)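 The Consortium for Functional Glycomics database supplied 3228 glycan arrays, of which those lacking an available protein sequence were dropped. The binding signal, a within-array Z-score, was averaged across arrays of the same protein sequence and across linkers. Negative scores can be read as non-binding.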
# [2] = target: Neu5Ac(a2-6)Gal(b1-4)GlcNAc(b1-3)Gal(b1-4)GlcNAc(b1-3)GalNAc
# Procedure, shortened: as §1
# [3] = target: Neu5Ac(a2-6)Gal(b1-4)GlcNAc(b1-3)Gal(b1-4)GlcNAc(b1-3)[Neu5Ac(a2-6)Gal(b1-4)GlcNAc(b1-3)Gal(b1-4)GlcNAc(b1-6)]GalNAc
# Procedure, shortened: as §1
# [4] = target: Neu5Ac(a2-6)Gal(b1-4)GlcNAc(b1-3)Gal(b1-4)GlcNAc(b1-6)[Gal(b1-3)]GalNAc
# Procedure, shortened: as §1
# [5] = target: Neu5Ac(a2-6)Gal(b1-4)GlcNAc(b1-3)Gal(b1-4)[Fuc(a1-3)]GlcNAc(b1-3)Gal(b1-4)[Fuc(a1-3)]GlcNAc
# Procedure, shortened: as §1
# [6] = target: Neu5Ac(a2-6)Gal(b1-4)GlcNAc(b1-3)GalNAc
# Procedure, shortened: as §1
# [7] = target: Neu5Ac(a2-6)Gal(b1-4)GlcNAc(b1-3)[Neu5Ac(a2-6)Gal(b1-4)GlcNAc(b1-6)]GalNAc
# Procedure, shortened: as §1
# [8] = target: Neu5Ac(a2-6)Gal(b1-4)GlcNAc(b1-6)GalNAc
# Procedure, shortened: as §1
# [9] = target: Neu5Ac(a2-6)Gal(b1-4)GlcNAc(b1-6)[Gal(b1-3)GlcNAc(b1-3)]Gal(b1-4)Glc
# Procedure, shortened: as §1
# [10] = target: Neu5Ac(a2-6)Gal(b1-4)GlcNAc(b1-6)[Gal(b1-3)]GalNAc
# Procedure, shortened: as §1
# [11] = target: Neu5Ac(a2-6)Gal(b1-4)GlcNAc6S
# Procedure, shortened: as §1
# Neu5Ac(a2-6)GalNAc = target: Neu5Ac(a2-6)GalNAc
# Procedure, shortened: as §1
# [12] = target: Neu5Ac(a2-6)GalNAc(b1-4)GlcNAc
# Procedure, shortened: as §1
# [13] = target: Neu5Ac(a2-6)GalNAc(b1-4)GlcNAc6S
# Procedure, shortened: as §1
# [14] = target: Neu5Ac(a2-6)GlcNAc(b1-4)GlcNAc
# Procedure, shortened: as §1
# [15] = target: Neu5Ac(a2-6)GlcNAc(b1-4)GlcNAc(b1-4)GlcNAc
# Procedure, shortened: as §1
# Neu5Ac(a2-8)Neu5Ac = target: Neu5Ac(a2-8)Neu5Ac
# Procedure, shortened: as §1
# [16] = target: Neu5Ac(a2-8)Neu5Ac(a2-3)Gal(b1-3)GalNAc(b1-4)[Neu5Ac(a2-3)]Gal(b1-4)Glc
# Procedure, shortened: as §1
# [17] = target: Neu5Ac(a2-8)Neu5Ac(a2-3)Gal(b1-3)GalNAc(b1-4)[Neu5Ac(a2-8)Neu5Ac(a2-3)]Gal(b1-4)Glc
# Procedure, shortened: as §1
# [18] = target: Neu5Ac(a2-8)Neu5Ac(a2-3)Gal(b1-4)Glc
# Procedure, shortened: as §1
# [19] = target: Neu5Ac(a2-8)Neu5Ac(a2-3)Gal(b1-4)GlcNAc
# Procedure, shortened: as §1
# [20] = target: Neu5Ac(a2-8)Neu5Ac(a2-3)[Gal(b1-3)GalNAc(b1-4)]Gal(b1-4)Glc
# Procedure, shortened: as §1
# [21] = target: Neu5Ac(a2-8)Neu5Ac(a2-3)[GalNAc(b1-4)]Gal(b1-4)Glc
# Procedure, shortened: as §1
# [22] = target: Neu5Ac(a2-8)Neu5Ac(a2-8)Neu5Ac
# Procedure, shortened: as §1
# [23] = target: Neu5Ac(a2-8)Neu5Ac(a2-8)Neu5Ac(a2-3)Gal(b1-4)Glc
# Procedure, shortened: as §1
# [24] = target: Neu5Ac(a2-8)Neu5Ac(a2-8)Neu5Ac(a2-3)[Gal(b1-3)GalNAc(b1-4)]Gal(b1-4)Glc
# Procedure, shortened: as §1
# [25] = target: Neu5Ac(a2-8)Neu5Ac(a2-8)Neu5Ac(a2-3)[GalNAc(b1-4)]Gal(b1-4)Glc
# Procedure, shortened: as §1
# [26] = target: Neu5Ac(a2-8)Neu5Ac(a2-8)Neu5Ac(a2-8)Neu5Ac(a2-3)[GalNAc(b1-4)]Gal(b1-4)Glc
# Procedure, shortened: as §1
# [27] = target: Neu5Ac(a2-8)Neu5Gc(a2-3)Gal(b1-4)GlcNAc
# Procedure, shortened: as §1
# [28] = target: Neu5Ac(b2-6)Gal(b1-4)GlcNAc
# Procedure, shortened: as §1
# Neu5Ac(b2-6)GalNAc = target: Neu5Ac(b2-6)GalNAc
# Procedure, shortened: as §1
# [29] = target: Neu5Ac9Ac(a2-3)Gal(b1-3)GlcNAc
# Procedure, shortened: as §1
# [30] = target: Neu5Ac9Ac(a2-3)Gal(b1-4)GlcNAc
# Procedure, shortened: as §1
# [31] = target: Neu5Ac9Ac(a2-6)Gal(b1-4)GlcNAc
# Procedure, shortened: as §1
# [32] = target: Neu5Gc(a2-3)Gal(b1-3)GlcNAc
# Procedure, shortened: as §1
# [33] = target: Neu5Gc(a2-3)Gal(b1-3)[Fuc(a1-4)]GlcNAc
# Procedure, shortened: as §1
# Neu5Gc(a2-3)Gal(b1-4)Glc = target: Neu5Gc(a2-3)Gal(b1-4)Glc
# Procedure, shortened: as §1
# [34] = target: Neu5Gc(a2-3)Gal(b1-4)GlcNAc
# Procedure, shortened: as §1
# [35] = target: Neu5Gc(a2-3)Gal(b1-4)GlcNAc(b1-3)Gal(b1-4)GlcNAc(b1-2)Man(a1-3)[Neu5Gc(a2-3)Gal(b1-4)GlcNAc(b1-3)Gal(b1-4)GlcNAc(b1-2)Man(a1-6)]Man(b1-4)GlcNAc(b1-4)GlcNAc
# Procedure, shortened: as §1
# [36] = target: Neu5Gc(a2-3)Gal(b1-4)[Fuc(a1-3)]GlcNAc
# Procedure, shortened: as §1
# [37] = target: Neu5Gc(a2-6)Gal(b1-4)GlcNAc
# Procedure, shortened: as §1
# Neu5Gc(a2-6)GalNAc = target: Neu5Gc(a2-6)GalNAc
# Procedure, shortened: as §1
# [38] = target: Neu5Gc(a2-8)Neu5Ac(a2-3)Gal(b1-4)GlcNAc
# Procedure, shortened: as §1
# [39] = target: Neu5Gc(a2-8)Neu5Gc(a2-3)Gal(b1-4)GlcNAc
# Procedure, shortened: as §1
# [40] = target: Neu5Gc(a2-8)Neu5Gc(a2-3)Gal(b1-4)GlcNAc(b1-3)Gal(b1-4)GlcNAc
# Procedure, shortened: as §1
# [41] = target: Neu5Gc(a2-8)Neu5Gc(a2-6)Gal(b1-4)GlcNAc
# Procedure, shortened: as §1
# [42] = target: Neu5Gc(b2-6)Gal(b1-4)GlcNAc
# Procedure, shortened: as §1
binder,measurement,setting,value
B1,glycan array binding signal (z-score),[1],1.47
same,glycan array binding signal (z-score),[2],0.763
same,glycan array binding signal (z-score),[3],0.057
same,glycan array binding signal (z-score),[4],-0.455
same,glycan array binding signal (z-score),[5],-0.572
same,glycan array binding signal (z-score),[6],2.04
same,glycan array binding signal (z-score),[7],-0.59
same,glycan array binding signal (z-score),[8],-0.736
same,glycan array binding signal (z-score),[9],-0.259
same,glycan array binding signal (z-score),[10],-0.37
same,glycan array binding signal (z-score),[11],-0.388
same,glycan array binding signal (z-score),Neu5Ac(a2-6)GalNAc,0.836
same,glycan array binding signal (z-score),[12],-0.824
same,glycan array binding signal (z-score),[13],-0.093
same,glycan array binding signal (z-score),[14],-0.758
same,glycan array binding signal (z-score),[15],-1.64
same,glycan array binding signal (z-score),Neu5Ac(a2-8)Neu5Ac,-0.956
same,glycan array binding signal (z-score),[16],-1.01
same,glycan array binding signal (z-score),[17],0.938
same,glycan array binding signal (z-score),[18],-0.144
same,glycan array binding signal (z-score),[19],0.568
same,glycan array binding signal (z-score),[20],2.49
same,glycan array binding signal (z-score),[21],0.364
same,glycan array binding signal (z-score),[22],0.151
same,glycan array binding signal (z-score),[23],-1.44
same,glycan array binding signal (z-score),[24],0.01
same,glycan array binding signal (z-score),[25],0.616
same,glycan array binding signal (z-score),[26],1.37
same,glycan array binding signal (z-score),[27],-0.348
same,glycan array binding signal (z-score),[28],-1.35
same,glycan array binding signal (z-score),Neu5Ac(b2-6)GalNAc,-0.212
same,glycan array binding signal (z-score),[29],0.769
same,glycan array binding signal (z-score),[30],1.54
same,glycan array binding signal (z-score),[31],-0.172
same,glycan array binding signal (z-score),[32],-0.359
same,glycan array binding signal (z-score),[33],0.922
same,glycan array binding signal (z-score),Neu5Gc(a2-3)Gal(b1-4)Glc,-1
same,glycan array binding signal (z-score),[34],0.292
same,glycan array binding signal (z-score),[35],0.593
same,glycan array binding signal (z-score),[36],-0.253
same,glycan array binding signal (z-score),[37],-1.46
same,glycan array binding signal (z-score),Neu5Gc(a2-6)GalNAc,-1.51
same,glycan array binding signal (z-score),[38],1.12
same,glycan array binding signal (z-score),[39],0.701
same,glycan array binding signal (z-score),[40],0.59
same,glycan array binding signal (z-score),[41],-1.21
same,glycan array binding signal (z-score),[42],0.365

# 3 entries from above, bar-delimited.
binder | measurement | setting | value
B1 | glycan array binding signal (z-score) | [3] | 0.057
same | glycan array binding signal (z-score) | [24] | 0.01
same | glycan array binding signal (z-score) | [29] | 0.769
